Results reported in patent US20050147610A1.
No constants are given. Whether binding was seen depends on the method and setting. Some binding calls cover weakened binding; strength is not graded here.

Amino acid sequences for entries named in this document (tags omitted). A change or cut given only in a name is not applied to a line headed by its entry.
UniProt Q14116: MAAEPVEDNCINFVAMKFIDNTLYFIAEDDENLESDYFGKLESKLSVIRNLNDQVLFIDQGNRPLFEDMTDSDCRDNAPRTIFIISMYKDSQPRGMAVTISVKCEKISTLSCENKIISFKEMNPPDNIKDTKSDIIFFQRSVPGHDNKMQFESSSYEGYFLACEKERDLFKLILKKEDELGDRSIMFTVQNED

Assays:
[1] = molecular target: recombinant mature human IL-18 (preparation not specified) (human) (UniProt Q14116); assay: BIACORE; soluble 2nd on rhuIL-18 captured by immobilized 2.3 (competitor)
[2] = molecular target: recombinant mature human IL-18 (preparation not specified) (human) (UniProt Q14116); assay: BIACORE; soluble 2nd on rhuIL-18 captured by immobilized 215 (competitor)
[3] = molecular target: recombinant mature human IL-18 (preparation not specified) (human) (UniProt Q14116); assay: BIACORE; soluble 2nd on rhuIL-18 captured by immobilized 444 (competitor)
[4] = molecular target: recombinant mature human IL-18 (preparation not specified) (human) (UniProt Q14116); assay: BIACORE; soluble 2nd on rhuIL-18 captured by immobilized 125-2H (competitor)
[5] = molecular target: recombinant mature human IL-18 (preparation not specified) (human) (UniProt Q14116); assay: BIACORE; soluble 2nd on rhuIL-18 captured by immobilized IL-18BP (competitor)
[6] = molecular target: recombinant mature human IL-18 (preparation not specified) (human) (UniProt Q14116); assay: BIACORE; soluble 2nd on rhuIL-18 captured by immobilized 2.13(E)mg1 (competitor)
[7] = molecular target: recombinant mature human IL-18 (preparation not specified) (human) (UniProt Q14116); assay: BIACORE; soluble 2nd on rhuIL-18 captured by immobilized 435 (competitor)
[8] = molecular target: recombinant mature human IL-18 (preparation not specified) (human) (UniProt Q14116); assay: BIACORE; soluble 2nd on rhuIL-18 captured by immobilized 581 (competitor)
[9] = molecular target: recombinant mature human IL-18 (preparation not specified) (human) (UniProt Q14116); assay: BIACORE; soluble 2nd on rhuIL-18 captured by immobilized 2.5(E)mg1 (competitor)

Measured: binding

B1: 435 (antibody, V domains shown)
VH: ZLQLQESGPGLVKPSETLSLTCTVSGGSIDSRIYYWGWIRQPPGKGLEWIGSIYYRGSTYYNPSLKSRVTISVDTPKNQFSLKLNSVTAADTAVYYCAREDSSAWVFDYWGQGTLATVSS
VL: EIVLTQSPGTLSLSPGERATLSCRASQSVRNNYLNWYQQKPGQAPRLLIYGAFSRATGIPDRFSGSGSGTDFTLTISSLEPEDFVVYYCQQYGNSIDSFGQGTKLEINR
not listed: [7] | [8] | [9]
binds: all other assays above

B2: 2.3.3 (antibody, V domains shown)
VH: ZVQLQESGPGLVKPSETLSLTCTVSGGSIRNYYWSWIRQPPGKGLEWVGYIYSSGSTNYNPSLKSRVTISVDTSKNQFSLKLSSVTAADTAVYYCARDRGGASFFDYWGQGTLVTVSS
VL: DIQMTQSPSSLSASIGDRVTITCRASQIIGGYLNWYQQRPGKAPKFLIYSTSILQSGVPSRFSGSGSGTDFTLTISSLQPEDFATYYCQQTYITPPTFGPGTKVDIKR
binds: [7] | [8] | [5] | [9]

B3: 581 (antibody, V domains shown)
VH: ZVQLVESGGGVVQPGRSLRLSCAASGFTFSHCGMHWVRQAPGKGLEWVAVISYDGSNKYYADSVKGRFTISRDNSKNTLYLQMNSLRAEDTAVYYCAKDHGGSGSPPFYYYYGMDVWGQGTTVTVSS
VL: DILMTQTPLSLSVTPGQPASISCKSSQSLLHGDGKTYLYWYLQKPGQPPQFLIQELSNRFSGVPDRFSGSGSGTDFTLKISRVEAEDVGVYYCMQSLQLPLTFGGGTKVQIKR
not listed: [7] | [8] | [9]
binds: all other assays above
